Hit rate of the full screen: of about 300,000 compounds, about 3,700 (1.2%) were called active. Inconclusive results, whose numbers are uncertain, are shown with a selection of clear calls. Calls follow the shape of the full dose curve; tested in HEK293 cells. Potencies beside an inconclusive call are fits to weak or partial responses and may not hold up.
Assay: qHTS for Inhibitors of binding or entry into cells for Lassa Virus; also: nearly all actives have a fitted effect of over 50% in size
Conditions: Lassa virus pseudotype entry inhibition, cell reporter; series mostly up to 37.9 µM
Potency is read from the fitted curve at half-maximal effect.

Row | SMILES | Potency
1 | O=C(c1cccc(S(=O)(=O)N2CCOCC2)c1)N(Cc1nnc(-c2ccccc2Cl)o1)C1CC1 | inconclusive: 35.5 µM [inhibitor, single point]
2 | CN1CCN(c2ccccc2NC(=O)c2ccc(-c3cccc([N+](=O)[O-])c3)o2)CC1 | inconclusive: 35.5 µM [inhibitor, single point]
3 | CC(=O)Nc1ccc(Nc2nc(-c3sc(C)nc3C)cs2)cc1 | inconclusive: 35.5 µM [inhibitor, single point]
4 | CCOc1ccc(N=CC2=C(O)CC(C)(C)CC2=O)cc1 | inactive
5 | CC(=O)O[C@]1(C(C)=O)CC[C@H]2[C@@H]3C=C(Cl)C4=CC(=O)[C@@H]5C[C@@H]5[C@]4(C)[C@H]3CC[C@@]21C | active: 16.4 µM
6 | Cc1ccc(OCc2ccc(C(=O)N3CCOCC3)cc2)cc1C | inconclusive: 8.2 µM [inhibitor, partial curve, poor fit]
7 | CCN1CCc2c(sc(NC(=O)c3ccc(S(=O)(=O)N(C)C4CCCCC4)cc3)c2C(N)=O)C1 | inconclusive: 2 µM [activator, partial curve, poor fit]
8 | CC1=CC=CC2=NC(=O)CC(C)(C(=O)N(CC(=O)NC(C)C)C3CCCC3)N12 (configuration not stated) | inactive
9 | Cc1ccccc1OCC(=O)Nc1ccc(NC(=O)c2ccco2)cc1 | inconclusive: 0.184 µM [inhibitor, partial curve, poor fit]
10 | CSc1nnc2c(n1)c(C)nn2-c1cccc(C)c1 | inconclusive: 20.6 µM [activator, single point]
11 | Oc1ccccc1/C=N/N1CCCCC1 | inactive
12 | CC(C)CN=CC1=C(O)c2ccccc2C1=O | inconclusive: 6.31 µM [activator, single point]
13 | Cc1occc1C(=O)N/N=C/c1ccccc1[N+](=O)[O-] | inconclusive: 8.91 µM [inhibitor, partial curve, poor fit]
14 | COc1cc(OC)cc(C(=O)Nc2ccc3nc4c(c(Nc5ccc(OC)c(OC)c5)c3c2)CCCC4)c1 | inconclusive: 35.5 µM [inhibitor, single point]
15 | CCCCc1ccc(Nc2cc(C)nc(-n3nc(C)cc3C)n2)cc1 | inconclusive: 12.6 µM [inhibitor, partial curve, poor fit]
16 | CN(C)CCOc1ccc2c(c1)Sc1ccccc1CC2=O | inconclusive: 20.6 µM [activator, single point]
17 | O=C(Nc1ccsc1C(=O)NC1CCCCC1)c1ccccc1 | inactive
18 | CCOC(=O)C1=CN(CCC=C(C)C)C(=O)NC1c1ccccc1 (configuration not stated) | inconclusive: 1.19 µM [activator, single point]
19 | Clc1ccc(CSc2ccc(-c3ccccn3)nn2)cc1 | inconclusive: 35.5 µM [inhibitor, single point]
20 | Cc1cccc(OCC(=O)Nc2cccc(C(=O)OCc3cc(=O)n4nc(C(C)C)sc4n3)c2)c1 | inconclusive: 3.55 µM [inhibitor, single point]
21 | CCCCOc1c(Br)cc(CNCCCN2CCOCC2)cc1OC | inconclusive: 20 µM [inhibitor, partial curve, poor fit]
22 | O=C(O)c1ccccc1NC(=O)c1cc(-c2ccccc2)nc2ccccc12 | inconclusive: 5.62 µM [inhibitor, single point]
23 | CCCC(=O)Nc1ccccc1NC(=O)c1ccc(OC(C)=O)cc1 | inactive

Quoted from above: nos. 1–3
Row | SMILES | Potency
1 | O=C(c1cccc(S(=O)(=O)N2CCOCC2)c1)N(Cc1nnc(-c2ccccc2Cl)o1)C1CC1 | inconclusive: 35.5 µM [inhibitor, single point]
2 | CN1CCN(c2ccccc2NC(=O)c2ccc(-c3cccc([N+](=O)[O-])c3)o2)CC1 | inconclusive: 35.5 µM [inhibitor, single point]
3 | CC(=O)Nc1ccc(Nc2nc(-c3sc(C)nc3C)cs2)cc1 | inconclusive: 35.5 µM [inhibitor, single point]

(listing goes on)

Row | SMILES | Potency
24 | O=c1oc2ccccc2n1CSc1nc2ccccc2s1 | inactive
25 | NC(=O)c1sc(-n2cnc3ccc(C(F)(F)F)cc32)cc1OCc1ccccc1Br | inconclusive: 6.28 µM [inhibitor, full curve, poor fit]
26 | CC(C)NS(=O)(=O)c1ccc(OCC(=O)NCCC2=CCCCC2)cc1 | inconclusive: 14.6 µM [inhibitor, single point]
27 | O=C(Cc1ccc(-c2ccccc2)cc1)NCc1cccnc1 | inconclusive: 3.55 µM [inhibitor, partial curve, poor fit]
28 | Cc1ccc(-c2nc(-c3ccncc3)no2)cc1Cl | inactive
29 | CSc1c(-c2ccccn2)c(N)nn1C(=O)C1CC1 | inconclusive: 3.98 µM [activator, partial curve, poor fit]
30 | NS(=O)(=O)c1ccc(CNC(=O)c2cc(-c3ccccc3)nc3ccccc23)cc1 | inconclusive: 1.03 µM [inhibitor, full curve, poor fit]
31 | Cc1ccccc1NC(=O)c1ccc(NS(=O)(=O)c2cc(C(C)(C)C)cc(C)c2C)cc1 | inconclusive: 1.26 µM [inhibitor, single point]
32 | Cc1cccc(OCc2nnc(SCC(=O)NC3CCCCC3)n2C)c1 | inconclusive: 6.31 µM [inhibitor, single point]
33 | COc1ccc2c(C)cc(SCC(=O)N3CCOCC3)nc2c1 | inconclusive: 22.4 µM [inhibitor, single point]
34 | CCn1c(CC(=O)Nc2ccccc2F)nnc1SCC(=O)NC1CCCCC1 | inconclusive: 5.62 µM [inhibitor, single point]
35 | O=C(O)c1ccccc1C(=O)NNc1ccc(Cl)cc1 | inactive
36 | COc1cccc(-n2c(SCC(=O)c3ccccc3)nc3c([nH]c4ccccc43)c2=O)c1 | inconclusive: 3.16 µM [inhibitor, single point]
37 | CSc1nnc(NC(=O)c2ccc3c(c2)OCO3)s1 | inconclusive: 1 µM [inhibitor, full curve, poor fit]
38 | COC(=O)C1=C(C)NC(=O)NC1c1cn(-c2ccccc2)nc1-c1ccc(OC)c(Br)c1 (configuration not stated) | inactive
39 | O=C(Cc1cccs1)N/N=C/c1ccccc1 | inconclusive: 11.2 µM [inhibitor, partial curve, poor fit]
40 | Cn1c(-c2ccco2)nc2cc3ccccc3cc21 | inconclusive: 7.3 µM [inhibitor, partial curve, poor fit]
41 | O=C(COC(=O)/C=C/c1ccc(OC(F)F)cc1)Nc1ccc2[nH]c(=O)[nH]c2c1 | inactive
42 | CC(=O)C1=C(C)NC(SCSc2ccccc2)=C(C#N)C1c1cccnc1 (configuration not stated) | inconclusive: 32.6 µM [inhibitor, partial curve, poor fit]
43 | CCOCC(=O)Nc1c(C(=O)Nc2ccc3c(c2)OCCO3)oc2ccccc12 | inconclusive: 3.16 µM [inhibitor, full curve, poor fit]
44 | O=[N+]([O-])c1ccc(NN=Cc2ccc3c(c2)OCO3)nc1 | inconclusive: 11.2 µM [inhibitor, partial curve, poor fit]
45 | COc1ccc(NC(=O)CN2C(=O)C(C)(C)c3cc(S(=O)(=O)N4CCCCC4)ccc32)cc1Cl | inconclusive: 20 µM [inhibitor, single point]
46 | O=C(O)c1cccc(N/N=C/c2sc(N3CCOCC3)nc2-c2ccccc2)c1 | inactive

Row | SMILES | Potency
47 | Cc1nn2c3c(cnc2c1-c1ccc(Cl)cc1)C(=O)CC(c1ccc(C(C)C)cc1)C3 (configuration not stated) | inactive
48 | Cc1cc(CNC(=O)C(C)n2cc([N+](=O)[O-])cn2)c2ccccc2n1 (configuration not stated) | inconclusive: 14.1 µM [inhibitor, single point]
49 | N#CC(c1ccccc1)(c1ncc(C(F)(F)F)cc1Cl)N1CCOCC1 (configuration not stated) | inconclusive: 12.6 µM [inhibitor, single point]
50 | CN(CC1CCCCO1)C(=O)c1cc(COc2ccc(F)cc2Cl)on1 (configuration not stated) | inactive
51 | CCc1sc(Nc2cccc(Cl)c2)nc1-c1cc2cccc(OC)c2oc1=O | inconclusive: 11.2 µM [inhibitor, single point]
52 | CCOC(=O)N1CCC(N(CCN(C)C)C(=S)Nc2cc(Cl)ccc2C)CC1 | inconclusive: 11.2 µM [inhibitor, partial curve, poor fit]
53 | O=C(/C=C/Nc1cccc(C(F)(F)F)c1)c1ccco1 | inconclusive: 35.5 µM [inhibitor, single point]
54 | COc1ccc(C(=O)NNC(=S)NC(=O)c2ccc(Cl)cc2)cc1 | inconclusive: 14.1 µM [inhibitor, partial curve, poor fit]
55 | C/C(=N\NC(=O)CSc1nc2ccccc2o1)c1ccc(O)cc1 | inconclusive: 6.31 µM [inhibitor, full curve]
56 | CCCCC[n+]1ccn(C2=C([O-])c3ccccc3C(=O)/C2=N\S(=O)(=O)c2ccccc2)c1 | inconclusive: 22.4 µM [inhibitor, single point]
57 | O=C1CCCc2c1cc(C(=O)Nc1ccc(Br)cn1)c(=O)n2-c1ccccc1 | inactive
58 | CC1(C)CN=C(Nc2nc3ccccc3s2)S1 | inactive
59 | Cc1ccc(C2=CC(c3ccccc3C)n3c(nc4ccccc43)N2)cc1 (configuration not stated) | inconclusive: 12.6 µM [inhibitor, single point]
60 | CCOC(=O)C1CCN(Cc2cc(C(C)C)c(O)c(C(C)C)c2)CC1 | inactive
61 | COc1ccc(C(=O)Nc2cccnc2)cc1 | inactive
62 | CC(C)C1=NN2C(=N)CC(=O)N=C2S1 | inconclusive: 0.116 µM [inhibitor, full curve, poor fit]
63 | COc1cccc(CN2CCN(CC(=O)NCCc3ccccc3)CC2)c1 | inactive
64 | O=C(CN1CCN(Cc2ccccc2)CC1)N/N=C/c1ccc(Br)s1 | inconclusive: 17.8 µM [inhibitor, single point]
65 | O=C1N/C(=N\N=C\c2ccc3ncccc3c2)SC1Cc1ccc(SC(F)F)cc1 (configuration not stated) | inconclusive: 1.83 µM [inhibitor, full curve, poor fit]
66 | Nc1nc2ccc(C(=O)Nc3ccccc3)cc2s1 | inconclusive: 1.26 µM [activator, full curve]
67 | Cc1cc(C)cc(NC(=O)N2CCCCCCC2)c1 | inconclusive: 35.5 µM [inhibitor, partial curve, poor fit]
